The list shows a part of the results.

In assay [1] the target is PYCR1_P32322_95_HIVVSCAAGVTISSIEK (UniProt P32322). Put plainly: probe-labelled cysteine peptide fold change vs DMSO (competition) (log2 fold change); higher = less target engagement (more negative = stronger competition). Particulars: THP-1, incubation time: 4 h.
The target in assay [2] is PYCR2_Q96C36_95_HIVVSCAAGVTISSVEK (UniProt Q96C36). The description is as above. The note with it: THP-1, incubation time: 4 h.
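Note: competitive chemoproteomic profiling in live THP-1 cells with an iodoacetamide desthiobiotin (IA-DTB) probe, comparing probe-labelled peptide intensities in compound-treated cells against DMSO-treated controls.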

Turning to `CC1Cc2ccccc2N1C(=O)C1CCCN(C(=O)CCl)C1` (mixture of isomers) [TRIM25 ligand 11 (diastereomer mixture)], the “probe-labelled cysteine peptide fold change” value in assay [1] (10 µM) was 0.0152; in assay [1] (50 µM), 0.0688; in assay [2] (10 µM), 0.223; in assay [2] (50 µM), 0.327.
